Results as given in paper PMC7693736.
Results are given in words; binding and its absence hold for the method and conditions named. In cells and extracts the contact can be indirect. Some results given as binding are weak or reduced against the parent protein; the word gives no strength. For some assays here: Where a sequence is shown, tags or fusion partners need not be part of it. Blank lines part the entries; values can stand above or below the binder they belong to.

By UniProt entry, the sequences of proteins in these tests, tags left out.
UniProt O88597: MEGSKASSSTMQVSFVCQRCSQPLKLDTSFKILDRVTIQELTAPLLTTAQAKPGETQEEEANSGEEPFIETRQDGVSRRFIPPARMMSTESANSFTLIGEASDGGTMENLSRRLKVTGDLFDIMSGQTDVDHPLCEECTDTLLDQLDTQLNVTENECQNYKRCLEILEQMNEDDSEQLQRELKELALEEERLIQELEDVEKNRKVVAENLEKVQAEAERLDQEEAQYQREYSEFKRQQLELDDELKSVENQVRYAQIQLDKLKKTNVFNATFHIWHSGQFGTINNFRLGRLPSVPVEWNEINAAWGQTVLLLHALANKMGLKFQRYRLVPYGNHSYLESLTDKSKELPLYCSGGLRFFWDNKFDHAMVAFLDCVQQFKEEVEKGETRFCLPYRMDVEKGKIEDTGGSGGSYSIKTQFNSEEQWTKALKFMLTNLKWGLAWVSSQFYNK
UniProt Q14457: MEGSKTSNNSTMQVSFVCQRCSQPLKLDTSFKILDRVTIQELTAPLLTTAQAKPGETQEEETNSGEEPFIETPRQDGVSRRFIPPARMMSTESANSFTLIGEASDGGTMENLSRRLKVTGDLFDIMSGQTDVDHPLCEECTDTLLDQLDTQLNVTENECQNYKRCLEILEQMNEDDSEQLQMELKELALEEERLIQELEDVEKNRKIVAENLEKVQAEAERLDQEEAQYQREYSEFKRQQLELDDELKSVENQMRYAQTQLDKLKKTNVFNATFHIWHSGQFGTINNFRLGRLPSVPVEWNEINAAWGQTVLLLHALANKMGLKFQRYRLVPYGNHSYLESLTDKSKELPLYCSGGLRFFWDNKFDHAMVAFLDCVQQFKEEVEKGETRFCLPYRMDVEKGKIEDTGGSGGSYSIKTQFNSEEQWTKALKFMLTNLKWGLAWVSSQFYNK

Experiments:
[1] = molecular target: Beclin 1, endogenous in mouse heart (mouse (endogenous in heart)) (UniProt O88597); assay: co-IP; heart lysates of WT mice fed with or without empagliflozin for 7 days; immunoprecipitated with Beclin 1 antibody, blotted with TLR9 antibodies recognising full-length 130 kDa or cleaved 53 kDa form
[2] = molecular target: Beclin 1-HA (UniProt Q14457); assay: co-IP; Flag-TLR9 or its fragments coexpressed with Beclin 1-HA in 293 cells (legend; the text says H9c2 for the full-length pair), with or without empagliflozin (200 nM); anti-HA or anti-Flag immunoprecipitates analysed by western blot

binding [1]: binds
B1: full-length TLR9 (130 kDa), endogenous in mouse heart (receptor, UniProt Q9EQU3 26-1032)
chain: LGTLPAFLPCELKPHGLVDCNWLFLKSVPRFSAAASCSNITRLSLISNRIHHLHNSDFVHLSNLRQLNLKWNCPPTGLSPLHFSCHMTIEPRTFLAMRTLEELNLSYNGITTVPRLPSSLVNLSLSHTNILVLDANSLAGLYSLRVLFMDGNCYYKNPCTGAVKVTPGALLGLSNLTHLSLKYNNLTKVPRQLPPSLEYLLVSYNLIVKLGPEDLANLTSLRVLDVGGNCRRCDHAPNPCIECGQKSLHLHPETFHHLSHLEGLVLKDSSLHTLNSSWFQGLVNLSVLDLSENFLYESITHTNAFQNLTRLRKLNLSFNYRKKVSFARLHLASSFKNLVSLQELNMNGIFFRLLNKYTLRWLADLPKLHTLHLQMNFINQAQLSIFGTFRALRFVDLSDNRISGPSTLSEATPEEADDAEQEELLSADPHPAPLSTPASKNFMDRCKNFKFTMDLSRNNLVTIKPEMFVNLSRLQCLSLSHNSIAQAVNGSQFLPLTNLQVLDLSHNKLDLYHWKSFSELPQLQALDLSYNSQPFSMKGIGHNFSFVTHLSMLQSLSLAHNDIHTRVSSHLNSNSVRFLDFSGNGMGRMWDEGGLYLHFFQGLSGLLKLDLSQNNLHILRPQNLDNLPKSLKLLSLRDNYLSFFNWTSLSFLPNLEVLDLAGNQLKALTNGTLPNGTLLQKLDVSSNSIVSVVPAFFALAVELKEVNLSHNILKTVDRSWFGPIVMNLTVLDVRSNPLHCACGAAFVDLLLEVQTKVPGLANGVKCGSPGQLQGRSIFAQDLRLCLDEVLSWDCFGLSLLAVAVGMVVPILHHLCGWDVWYCFHLCLAWLPLLARSRRSAQTLPYDAFVVFDKAQSAVADWVYNELRVRLEERRGRRALRLCLEDRDWLPGQTLFENLWASIYGSRKTLFVLAHTDRVSGLLRTSFLLAQQRLLEDRKDVVVLVILRPDAHRSRYVRLRQRLCRQSVLFWPQQPNGQGGFWAQLSTALTRDNRHFYNQNFCRGPTAE

binding [2]: no binding
B2: Flag-tagged TLR9 with only TIR domain (TIR) (domain or fragment, UniProt Q9NR96 868-1013)
chain: LPYDAFVVFDKTQSAVADWVYNELRGQLEECRGRWALRLCLEERDWLPGKTLFENLWASVYGSRKTLFVLAHTDRVSGLLRASFLLAQQRLLEDRKDVVVLVILSPDGRRSRYVRLRQRLCRQSVLLWPHQPSGQRSFWAQLGMAL
